Test results taken from patent US9206224 (dated 2015).

Test: general procedure: Fmoc solid-phase peptide synthesis
Settings: whole synthesis, scale 0.25 mmol

Substance	isolated mass [mg]	isolated yield
N3-Esoc-GILKEPVQGA-SEAoff	15	Yld=14%
N3-ESOC-AAAAAKDYIRN-SEAoff	23	Yld=23%
